Results are given in words; binding and its absence hold for the method and conditions named. In cells and extracts the contact can be indirect. Tags and fused reporters may be left off the sequences shown.
Target: T1, RUFY3-HA, expressed in HEK293T (human) (UniProt Q7L099)
T1 sequence: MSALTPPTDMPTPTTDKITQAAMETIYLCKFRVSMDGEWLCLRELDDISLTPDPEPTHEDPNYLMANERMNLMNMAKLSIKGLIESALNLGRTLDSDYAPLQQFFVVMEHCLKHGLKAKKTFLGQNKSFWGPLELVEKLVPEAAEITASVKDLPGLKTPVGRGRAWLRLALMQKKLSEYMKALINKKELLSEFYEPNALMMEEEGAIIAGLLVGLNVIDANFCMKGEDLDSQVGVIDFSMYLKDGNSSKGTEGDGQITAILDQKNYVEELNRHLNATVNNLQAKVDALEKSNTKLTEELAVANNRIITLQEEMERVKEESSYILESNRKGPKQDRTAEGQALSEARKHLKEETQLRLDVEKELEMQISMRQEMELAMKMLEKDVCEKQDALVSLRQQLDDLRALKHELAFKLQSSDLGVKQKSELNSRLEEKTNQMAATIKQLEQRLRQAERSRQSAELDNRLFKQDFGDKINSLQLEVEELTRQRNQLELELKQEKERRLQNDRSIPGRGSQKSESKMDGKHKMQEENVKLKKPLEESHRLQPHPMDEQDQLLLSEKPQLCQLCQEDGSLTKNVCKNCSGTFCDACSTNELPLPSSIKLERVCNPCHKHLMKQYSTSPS
Test: co-IP; lysates of HEK293T cells expressing the HA-tagged bait (RUFY3-HA, Fig. 4b; Arl8b-HA alone or with RUFY3-FLAG, Fig. 5j); precipitates blotted for endogenous partners; TAP lysis buffer

Protein sequences, listed by entry. Tags and fused reporters are not part of them.
UniProt P51149: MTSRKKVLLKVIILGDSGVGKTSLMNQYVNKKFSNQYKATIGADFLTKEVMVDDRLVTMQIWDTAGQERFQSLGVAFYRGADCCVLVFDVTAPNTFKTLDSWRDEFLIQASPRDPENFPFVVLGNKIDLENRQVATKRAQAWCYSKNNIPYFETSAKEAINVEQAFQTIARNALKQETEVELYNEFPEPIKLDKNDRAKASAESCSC

binding: no binding
Substance: Rab7, endogenous in HEK293T (from UniProt P51149 1-207)

Reference: article PMC8938454
